Measured values: the supplement of paper PMC10849652
The list shows a part of the results.

The chains behind the UniProt entries cited, without tags or fusion partners. Where a name states a change or a piece, a line headed by the entry shows the natural chain unless it says otherwise.
UniProt P21695: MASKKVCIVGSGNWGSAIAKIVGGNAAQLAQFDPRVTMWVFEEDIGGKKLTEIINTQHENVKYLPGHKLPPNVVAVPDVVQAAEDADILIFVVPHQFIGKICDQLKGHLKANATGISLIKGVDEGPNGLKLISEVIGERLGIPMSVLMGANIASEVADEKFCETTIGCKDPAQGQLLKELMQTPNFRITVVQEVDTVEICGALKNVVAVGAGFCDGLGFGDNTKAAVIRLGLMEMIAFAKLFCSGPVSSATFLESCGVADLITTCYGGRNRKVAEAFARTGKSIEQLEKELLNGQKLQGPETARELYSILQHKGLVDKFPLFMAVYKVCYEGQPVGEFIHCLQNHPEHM
UniProt Q14161: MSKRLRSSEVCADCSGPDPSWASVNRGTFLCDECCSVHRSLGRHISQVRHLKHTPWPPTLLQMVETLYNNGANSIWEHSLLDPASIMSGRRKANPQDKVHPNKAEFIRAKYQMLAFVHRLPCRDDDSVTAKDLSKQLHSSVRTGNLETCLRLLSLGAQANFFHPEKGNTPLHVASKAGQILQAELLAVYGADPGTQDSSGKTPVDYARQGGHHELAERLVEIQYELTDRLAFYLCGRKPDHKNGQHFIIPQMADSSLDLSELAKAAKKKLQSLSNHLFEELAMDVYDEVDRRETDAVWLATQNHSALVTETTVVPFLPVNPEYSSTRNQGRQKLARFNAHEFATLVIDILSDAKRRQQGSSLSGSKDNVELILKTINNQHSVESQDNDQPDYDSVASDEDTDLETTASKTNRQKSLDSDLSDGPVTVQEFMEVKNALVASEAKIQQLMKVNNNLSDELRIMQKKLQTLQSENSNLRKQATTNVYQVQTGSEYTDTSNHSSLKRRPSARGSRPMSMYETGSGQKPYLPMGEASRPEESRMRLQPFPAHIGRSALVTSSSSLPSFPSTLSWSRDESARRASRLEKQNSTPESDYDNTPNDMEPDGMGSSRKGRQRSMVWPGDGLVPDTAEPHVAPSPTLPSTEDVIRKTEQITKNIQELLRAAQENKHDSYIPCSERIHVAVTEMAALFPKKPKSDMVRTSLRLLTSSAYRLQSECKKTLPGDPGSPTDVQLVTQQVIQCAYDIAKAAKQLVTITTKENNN
UniProt Q13227: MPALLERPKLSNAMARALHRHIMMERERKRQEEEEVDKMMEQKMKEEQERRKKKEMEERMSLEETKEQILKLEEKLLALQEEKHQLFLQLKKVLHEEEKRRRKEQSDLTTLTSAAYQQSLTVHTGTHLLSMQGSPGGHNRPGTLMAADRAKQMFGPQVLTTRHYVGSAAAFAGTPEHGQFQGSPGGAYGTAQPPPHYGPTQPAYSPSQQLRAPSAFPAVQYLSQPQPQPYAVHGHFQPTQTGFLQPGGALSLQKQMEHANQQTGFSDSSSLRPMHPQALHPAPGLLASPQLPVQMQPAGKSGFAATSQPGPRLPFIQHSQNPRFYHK
UniProt Q8NBJ4: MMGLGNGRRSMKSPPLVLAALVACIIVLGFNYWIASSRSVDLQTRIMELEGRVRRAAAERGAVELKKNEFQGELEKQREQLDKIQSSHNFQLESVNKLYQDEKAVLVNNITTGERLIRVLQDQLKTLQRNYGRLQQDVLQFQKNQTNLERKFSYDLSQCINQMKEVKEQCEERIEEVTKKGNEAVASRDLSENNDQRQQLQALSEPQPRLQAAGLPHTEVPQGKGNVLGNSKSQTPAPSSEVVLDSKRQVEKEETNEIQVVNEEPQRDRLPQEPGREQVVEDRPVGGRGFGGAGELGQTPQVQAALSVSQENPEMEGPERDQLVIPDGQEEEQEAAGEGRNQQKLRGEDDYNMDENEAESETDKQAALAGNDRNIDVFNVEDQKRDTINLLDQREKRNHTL
UniProt Q9NZD2: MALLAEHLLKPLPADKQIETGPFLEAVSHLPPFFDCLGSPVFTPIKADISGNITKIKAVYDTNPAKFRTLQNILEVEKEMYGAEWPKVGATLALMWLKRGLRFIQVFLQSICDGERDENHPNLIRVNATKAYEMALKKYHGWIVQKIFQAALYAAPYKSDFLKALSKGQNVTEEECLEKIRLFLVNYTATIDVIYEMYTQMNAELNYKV
UniProt Q9NU53: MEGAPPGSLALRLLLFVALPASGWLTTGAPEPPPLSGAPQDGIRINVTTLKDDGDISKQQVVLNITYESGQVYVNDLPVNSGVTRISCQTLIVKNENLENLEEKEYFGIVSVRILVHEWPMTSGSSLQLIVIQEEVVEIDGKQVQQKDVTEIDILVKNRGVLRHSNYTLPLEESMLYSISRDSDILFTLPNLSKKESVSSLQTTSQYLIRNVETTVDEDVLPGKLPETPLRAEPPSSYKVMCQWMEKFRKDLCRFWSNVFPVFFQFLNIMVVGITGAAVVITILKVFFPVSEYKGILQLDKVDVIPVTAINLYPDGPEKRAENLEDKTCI
UniProt Q8TD30: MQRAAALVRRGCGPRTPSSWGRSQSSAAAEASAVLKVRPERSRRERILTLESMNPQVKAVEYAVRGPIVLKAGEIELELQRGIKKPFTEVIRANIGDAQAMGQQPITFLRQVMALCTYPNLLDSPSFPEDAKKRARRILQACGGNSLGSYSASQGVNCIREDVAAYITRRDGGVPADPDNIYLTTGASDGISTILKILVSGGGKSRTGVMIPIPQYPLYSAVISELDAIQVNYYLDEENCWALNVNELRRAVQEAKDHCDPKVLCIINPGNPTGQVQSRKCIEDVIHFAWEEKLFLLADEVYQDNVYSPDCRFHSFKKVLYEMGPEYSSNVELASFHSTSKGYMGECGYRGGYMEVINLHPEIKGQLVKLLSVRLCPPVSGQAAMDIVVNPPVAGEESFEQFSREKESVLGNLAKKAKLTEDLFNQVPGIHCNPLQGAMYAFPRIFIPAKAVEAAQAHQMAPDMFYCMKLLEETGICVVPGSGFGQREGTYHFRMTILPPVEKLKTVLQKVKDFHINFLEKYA
UniProt A6NDN3: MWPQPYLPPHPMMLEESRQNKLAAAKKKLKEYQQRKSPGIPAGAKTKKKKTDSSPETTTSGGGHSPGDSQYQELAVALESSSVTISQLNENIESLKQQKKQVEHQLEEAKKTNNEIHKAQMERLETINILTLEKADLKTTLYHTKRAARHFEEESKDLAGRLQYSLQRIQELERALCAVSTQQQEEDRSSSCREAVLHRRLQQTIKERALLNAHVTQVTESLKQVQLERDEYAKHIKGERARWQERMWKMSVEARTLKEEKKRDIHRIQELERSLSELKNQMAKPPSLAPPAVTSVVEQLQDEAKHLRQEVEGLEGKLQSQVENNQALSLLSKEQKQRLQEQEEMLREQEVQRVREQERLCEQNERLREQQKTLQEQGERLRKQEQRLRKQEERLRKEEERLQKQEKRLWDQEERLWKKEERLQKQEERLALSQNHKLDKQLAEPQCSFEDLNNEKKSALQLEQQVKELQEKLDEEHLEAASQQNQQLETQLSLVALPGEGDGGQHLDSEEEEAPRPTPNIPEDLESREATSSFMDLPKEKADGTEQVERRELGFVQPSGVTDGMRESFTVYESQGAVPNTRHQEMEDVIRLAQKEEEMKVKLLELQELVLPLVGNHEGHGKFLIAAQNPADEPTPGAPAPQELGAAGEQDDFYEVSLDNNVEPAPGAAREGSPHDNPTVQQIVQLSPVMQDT
UniProt Q6ZS86: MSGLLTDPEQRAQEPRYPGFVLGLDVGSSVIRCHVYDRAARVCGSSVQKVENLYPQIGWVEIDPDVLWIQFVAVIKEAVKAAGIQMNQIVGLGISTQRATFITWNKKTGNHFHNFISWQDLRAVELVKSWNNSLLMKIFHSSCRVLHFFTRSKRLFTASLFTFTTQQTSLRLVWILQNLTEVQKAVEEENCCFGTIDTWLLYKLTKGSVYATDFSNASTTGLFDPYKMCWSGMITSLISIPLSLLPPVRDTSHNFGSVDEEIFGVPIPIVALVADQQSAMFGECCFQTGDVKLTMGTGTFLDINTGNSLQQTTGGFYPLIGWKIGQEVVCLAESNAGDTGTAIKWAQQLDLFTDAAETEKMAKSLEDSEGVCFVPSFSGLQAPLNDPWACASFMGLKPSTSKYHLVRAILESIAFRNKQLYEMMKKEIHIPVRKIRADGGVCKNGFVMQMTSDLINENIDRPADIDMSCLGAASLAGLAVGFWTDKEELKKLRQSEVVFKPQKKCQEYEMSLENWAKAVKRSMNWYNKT
UniProt Q9BQQ3: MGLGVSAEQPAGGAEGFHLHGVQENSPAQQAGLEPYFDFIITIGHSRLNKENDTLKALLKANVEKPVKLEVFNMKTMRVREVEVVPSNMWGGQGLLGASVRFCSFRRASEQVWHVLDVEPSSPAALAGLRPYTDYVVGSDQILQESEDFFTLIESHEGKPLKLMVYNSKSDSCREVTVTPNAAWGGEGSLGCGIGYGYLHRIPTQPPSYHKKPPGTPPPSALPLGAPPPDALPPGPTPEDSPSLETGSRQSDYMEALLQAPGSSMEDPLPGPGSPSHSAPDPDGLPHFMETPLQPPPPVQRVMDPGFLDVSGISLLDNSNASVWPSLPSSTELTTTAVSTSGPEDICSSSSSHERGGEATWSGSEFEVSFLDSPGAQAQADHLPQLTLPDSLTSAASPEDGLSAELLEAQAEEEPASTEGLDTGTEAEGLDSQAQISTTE
UniProt I6L899: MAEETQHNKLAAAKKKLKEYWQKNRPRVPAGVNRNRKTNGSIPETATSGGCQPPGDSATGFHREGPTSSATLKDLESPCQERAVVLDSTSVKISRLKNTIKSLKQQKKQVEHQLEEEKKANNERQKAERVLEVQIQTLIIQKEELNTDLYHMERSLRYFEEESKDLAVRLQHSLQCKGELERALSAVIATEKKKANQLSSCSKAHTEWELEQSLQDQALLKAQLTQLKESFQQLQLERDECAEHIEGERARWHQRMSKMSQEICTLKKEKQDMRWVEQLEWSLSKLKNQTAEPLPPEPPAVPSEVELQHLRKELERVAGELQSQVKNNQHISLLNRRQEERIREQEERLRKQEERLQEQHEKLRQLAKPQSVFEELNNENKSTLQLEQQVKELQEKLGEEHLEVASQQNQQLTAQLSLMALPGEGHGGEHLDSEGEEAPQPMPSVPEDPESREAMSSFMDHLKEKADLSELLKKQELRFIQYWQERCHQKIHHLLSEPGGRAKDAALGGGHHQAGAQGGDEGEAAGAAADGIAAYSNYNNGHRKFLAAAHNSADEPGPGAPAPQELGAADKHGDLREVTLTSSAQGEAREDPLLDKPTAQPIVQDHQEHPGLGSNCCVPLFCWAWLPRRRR
UniProt Q9UBI6: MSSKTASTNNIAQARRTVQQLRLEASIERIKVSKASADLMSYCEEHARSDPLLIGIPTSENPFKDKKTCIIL
UniProt Q68CQ7: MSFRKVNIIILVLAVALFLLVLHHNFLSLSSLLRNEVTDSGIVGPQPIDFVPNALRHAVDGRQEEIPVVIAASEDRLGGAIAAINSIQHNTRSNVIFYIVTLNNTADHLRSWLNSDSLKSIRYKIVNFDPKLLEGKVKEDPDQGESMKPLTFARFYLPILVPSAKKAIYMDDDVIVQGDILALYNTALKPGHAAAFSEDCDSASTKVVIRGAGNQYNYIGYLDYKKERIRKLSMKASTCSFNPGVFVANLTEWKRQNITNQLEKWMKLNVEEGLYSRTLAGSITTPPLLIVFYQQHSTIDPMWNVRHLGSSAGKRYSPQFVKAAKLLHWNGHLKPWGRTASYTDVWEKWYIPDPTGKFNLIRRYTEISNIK
UniProt O75487: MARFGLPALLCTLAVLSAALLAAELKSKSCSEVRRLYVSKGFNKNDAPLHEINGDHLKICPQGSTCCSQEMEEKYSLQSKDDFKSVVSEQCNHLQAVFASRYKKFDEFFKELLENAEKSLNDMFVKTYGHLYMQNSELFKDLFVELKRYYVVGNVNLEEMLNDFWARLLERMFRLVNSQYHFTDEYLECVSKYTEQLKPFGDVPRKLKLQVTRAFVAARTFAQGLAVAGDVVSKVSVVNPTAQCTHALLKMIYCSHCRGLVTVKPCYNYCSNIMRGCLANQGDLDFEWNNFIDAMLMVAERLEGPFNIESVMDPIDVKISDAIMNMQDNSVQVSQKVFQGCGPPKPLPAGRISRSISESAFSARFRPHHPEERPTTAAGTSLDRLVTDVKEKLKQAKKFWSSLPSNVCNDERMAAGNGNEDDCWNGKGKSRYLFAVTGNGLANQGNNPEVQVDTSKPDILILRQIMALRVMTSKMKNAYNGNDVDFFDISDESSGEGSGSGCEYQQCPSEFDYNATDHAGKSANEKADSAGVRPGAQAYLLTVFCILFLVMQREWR
UniProt P17302, whole entry, looked up: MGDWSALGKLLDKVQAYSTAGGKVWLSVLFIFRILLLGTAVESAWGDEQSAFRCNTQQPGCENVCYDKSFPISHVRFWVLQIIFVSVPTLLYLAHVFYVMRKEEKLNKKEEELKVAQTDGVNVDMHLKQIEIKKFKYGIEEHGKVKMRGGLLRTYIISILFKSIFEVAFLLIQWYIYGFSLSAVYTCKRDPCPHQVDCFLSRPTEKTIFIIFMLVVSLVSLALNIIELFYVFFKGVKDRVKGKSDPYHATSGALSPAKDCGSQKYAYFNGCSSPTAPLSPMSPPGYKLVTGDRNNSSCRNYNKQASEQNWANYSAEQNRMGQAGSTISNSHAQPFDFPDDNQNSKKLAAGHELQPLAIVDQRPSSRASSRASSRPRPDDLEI

Compound: COc1cccc2cc(-c3nc([C@H]4CC[C@H](C(=O)O)CC4)n4ncnc(N)c34)[nH]c12
Test: log2 fold change, soluble protein after heating vs DMSO (PISA); higher = thermal stabilisation; K562 cells, 10 uM, 30 min; active = over 0.2 and 3.5 SD of the protein, either way, in both replicates (recomputed)
Procedure, shortened: (§1)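 K562 cells at 2×10^6 cells/mL were exposed to 10 μM compound for 30 min, then aliquots were heated for 3 min across 48°C-58°C, pooled, and extracted in PBS containing 0.5% NP-40 at 4°C. The supernatant after 21,000xg for 90 min was taken as soluble protein and measured by TMTpro 16plex LC-MS/MS with channel sums equalised. Thermal stability is reported relative to control samples, with values from duplicates. Fold changes are given on a log2 scale.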

Q: With GPD1 (UniProt P21695) as the target, how does the log2 fold change read?
A: inactive: 0.111

Q: For GPAA1 (UniProt E9PLG8), which log2 fold change is on record?
A: inactive: -0.179

Q: GIT2 (UniProt Q14161) was tested. Which log2 fold change did it give?
A: inactive: 0.163

Q: For GPS2 (UniProt Q13227), which log2 fold change is on record?
A: inactive: 0.152

Q: Which log2 fold change does the source give for GOLM1 (UniProt Q8NBJ4) here?
A: inactive: 0.26

Q: How did the log2 fold change turn out when GNL3 (UniProt Q9BVP2) was run?
A: inactive: 0.071

Q: With GP6 isoform 3 (UniProt Q9HCN6) as the target, how does the log2 fold change read?
A: inactive: 0.072

Q: GOPC (UniProt Q9HD26) was tested. Which log2 fold change did it give?
A: inactive: -0.146

Q: How did the log2 fold change turn out when GOLPH3L (UniProt Q9H4A5) was run?
A: inactive: -0.15

Q: GLTP (UniProt Q9NZD2) was tested. Which log2 fold change did it give?
A: inactive: 0.05

Q: For GINM1 (UniProt Q9NU53), which log2 fold change is on record?
A: inactive: 0.038

Q: For GPS1 (UniProt A8K070), which log2 fold change is on record?
A: inactive: 0

Q: With GNL2 (UniProt Q13823) as the target, how does the log2 fold change read?
A: inactive: 0.051

Q: How did the log2 fold change turn out when GPT2 (UniProt Q8TD30) was run?
A: inactive: -0.254

Q: GNPTG (UniProt Q9UJJ9) was tested. Which log2 fold change did it give?
A: inactive: 0.123

Q: For GOSR1 (UniProt E9PCW1), which log2 fold change is on record?
A: inactive: 0.176

Q: GOLGA6B (UniProt A6NDN3) was tested. Which log2 fold change did it give?
A: inactive: 0.102

Compound: CS(=O)(=O)CCNCc1ccc(-c2ccc3ncnc(Nc4ccc(OCc5cccc(F)c5)c(Cl)c4)c3c2)o1 [lapatinib]
Test: as above
Procedure, shortened: as §1

Q: Which log2 fold change does the source give for GLCE (UniProt O94923) here?
A: inactive: 0.016

Q: With GPD1 (UniProt P21695) as the target, how does the log2 fold change read?
A: inactive: 0.015

Q: GIGYF1 (UniProt O75420) was tested. Which log2 fold change did it give?
A: inactive: 0.127

Q: GIT2 (UniProt Q14161) was tested. Which log2 fold change did it give?
A: inactive: 0.058

Q: How did the log2 fold change turn out when GPS2 (UniProt Q13227) was run?
A: inactive: -0.044

Q: How did the log2 fold change turn out when GK5 (UniProt Q6ZS86) was run?
A: inactive: 0.152

Q: For GOLGA1 (UniProt Q92805), which log2 fold change is on record?
A: inactive: 0.027

Q: GOLM1 (UniProt Q8NBJ4) was tested. Which log2 fold change did it give?
A: inactive: 0.067

Q: GORASP1 (UniProt Q9BQQ3) was tested. Which log2 fold change did it give?
A: inactive: -0.174

Q: How did the log2 fold change turn out when GOPC (UniProt Q9HD26) was run?
A: inactive: 0.15

Q: GLTP (UniProt Q9NZD2) was tested. Which log2 fold change did it give?
A: inactive: -0.039

Q: GPAM (UniProt Q9HCL2) was tested. Which log2 fold change did it give?
A: inactive: 0.067

Q: GINM1 (UniProt Q9NU53) was tested. Which log2 fold change did it give?
A: inactive: -0.004

Q: GPATCH4 isoform 3 (UniProt Q5T3I0) was tested. Which log2 fold change did it give?
A: inactive: 0.258

Q: For GPT2 (UniProt Q8TD30), which log2 fold change is on record?
A: inactive: 0.005

Q: Which log2 fold change does the source give for GOSR1 (UniProt E9PCW1) here?
A: inactive: 0.097

Q: With GOLGA8R (UniProt I6L899) as the target, how does the log2 fold change read?
A: inactive: -0.093

Q: GPX3 (UniProt P22352) was tested. Which log2 fold change did it give?
A: inactive: -0.039

Compound: CS(=O)(=O)N1CCN(Cc2cc3nc(-c4cccc5[nH]ncc45)nc(N4CCOCC4)c3s2)CC1 [pictilisib]
Test: as above
Procedure, shortened: as §1

Q: Which log2 fold change does the source give for GPD1 (UniProt P21695) here?
A: inactive: 0.203

Q: GPAA1 (UniProt E9PLG8) was tested. Which log2 fold change did it give?
A: inactive: -0.037

Q: Which log2 fold change does the source give for GIGYF1 (UniProt O75420) here?
A: inactive: 0.011

Q: With GK5 (UniProt Q6ZS86) as the target, how does the log2 fold change read?
A: inactive: -0.344

Q: Which log2 fold change does the source give for GOLGA1 (UniProt Q92805) here?
A: inactive: -0.136

Q: With GNG12 (UniProt Q9UBI6) as the target, how does the log2 fold change read?
A: inactive: -0.12

Q: For GNL3 (UniProt Q9BVP2), which log2 fold change is on record?
A: inactive: 0.061

Q: For GOPC (UniProt Q9HD26), which log2 fold change is on record?
A: inactive: 0.08

Q: With GOLPH3L (UniProt Q9H4A5) as the target, how does the log2 fold change read?
A: inactive: -0.003

Q: Which log2 fold change does the source give for GLT8D1 (UniProt Q68CQ7) here?
A: inactive: 0.068

Q: For GLTP (UniProt Q9NZD2), which log2 fold change is on record?
A: inactive: -0.057

Q: Which log2 fold change does the source give for GPAM (UniProt Q9HCL2) here?
A: inactive: -0.111

Q: GINM1 (UniProt Q9NU53) was tested. Which log2 fold change did it give?
A: inactive: 0.069

Q: How did the log2 fold change turn out when GPS1 (UniProt A8K070) was run?
A: inactive: 0.171

Q: With GNL2 (UniProt Q13823) as the target, how does the log2 fold change read?
A: inactive: 0.025

Q: How did the log2 fold change turn out when GPATCH4 isoform 3 (UniProt Q5T3I0) was run?
A: inactive: 0.002

Q: Which log2 fold change does the source give for GPC4 (UniProt O75487) here?
A: inactive: 0.293

Q: How did the log2 fold change turn out when GPT2 (UniProt Q8TD30) was run?
A: inactive: 0.33

Q: How did the log2 fold change turn out when GNPTG (UniProt Q9UJJ9) was run?
A: inactive: 0.14

Q: For GNL3L (UniProt Q9NVN8), which log2 fold change is on record?
A: inactive: -0.053

Q: With GJA1 (UniProt P17302) as the target, how does the log2 fold change read?
A: inactive: -0.075

Q: Which log2 fold change does the source give for GOLGA6B (UniProt A6NDN3) here?
A: inactive: 0.144

Q: GOLGA8R (UniProt I6L899) was tested. Which log2 fold change did it give?
A: inactive: 0.01
